Reference: article PMC5705821
No constants are given. Whether binding was seen depends on the method and setting. Binding seen in cells or lysates may run through a third protein. Some binding calls cover weakened binding; strength is not graded here. Blank lines part the entries; values can stand above or below the molecule they belong to.

Chains of the proteins cited; added tags and fusions are not shown. Residues count along the entry.
UniProt P19338: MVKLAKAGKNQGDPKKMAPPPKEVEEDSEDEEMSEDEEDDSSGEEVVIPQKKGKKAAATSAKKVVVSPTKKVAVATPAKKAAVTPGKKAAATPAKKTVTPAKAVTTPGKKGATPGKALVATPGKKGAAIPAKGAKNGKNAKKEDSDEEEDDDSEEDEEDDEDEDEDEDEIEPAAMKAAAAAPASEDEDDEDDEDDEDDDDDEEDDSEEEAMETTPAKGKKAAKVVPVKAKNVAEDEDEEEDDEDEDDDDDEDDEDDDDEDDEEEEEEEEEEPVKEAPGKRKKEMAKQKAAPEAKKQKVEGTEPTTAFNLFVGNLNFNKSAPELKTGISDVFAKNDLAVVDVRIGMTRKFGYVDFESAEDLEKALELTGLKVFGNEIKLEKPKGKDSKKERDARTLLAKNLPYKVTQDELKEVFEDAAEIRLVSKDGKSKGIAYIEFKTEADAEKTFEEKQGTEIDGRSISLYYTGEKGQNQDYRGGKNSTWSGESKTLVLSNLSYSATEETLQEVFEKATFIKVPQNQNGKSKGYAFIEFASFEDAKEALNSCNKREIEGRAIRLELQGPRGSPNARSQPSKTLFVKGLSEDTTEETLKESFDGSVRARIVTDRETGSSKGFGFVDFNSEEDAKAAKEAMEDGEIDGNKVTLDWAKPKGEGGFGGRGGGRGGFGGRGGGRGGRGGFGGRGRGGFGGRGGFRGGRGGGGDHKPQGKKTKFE
UniProt P06748: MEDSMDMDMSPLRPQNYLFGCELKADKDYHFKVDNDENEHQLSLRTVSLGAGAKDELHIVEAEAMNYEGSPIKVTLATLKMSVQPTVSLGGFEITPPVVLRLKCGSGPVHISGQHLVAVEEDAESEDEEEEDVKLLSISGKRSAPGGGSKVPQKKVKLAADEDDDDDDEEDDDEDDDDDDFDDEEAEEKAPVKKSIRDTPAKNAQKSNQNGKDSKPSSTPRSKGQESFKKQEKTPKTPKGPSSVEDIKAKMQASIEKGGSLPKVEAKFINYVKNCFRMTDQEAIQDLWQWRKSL
UniProt P02545, residues 1-646: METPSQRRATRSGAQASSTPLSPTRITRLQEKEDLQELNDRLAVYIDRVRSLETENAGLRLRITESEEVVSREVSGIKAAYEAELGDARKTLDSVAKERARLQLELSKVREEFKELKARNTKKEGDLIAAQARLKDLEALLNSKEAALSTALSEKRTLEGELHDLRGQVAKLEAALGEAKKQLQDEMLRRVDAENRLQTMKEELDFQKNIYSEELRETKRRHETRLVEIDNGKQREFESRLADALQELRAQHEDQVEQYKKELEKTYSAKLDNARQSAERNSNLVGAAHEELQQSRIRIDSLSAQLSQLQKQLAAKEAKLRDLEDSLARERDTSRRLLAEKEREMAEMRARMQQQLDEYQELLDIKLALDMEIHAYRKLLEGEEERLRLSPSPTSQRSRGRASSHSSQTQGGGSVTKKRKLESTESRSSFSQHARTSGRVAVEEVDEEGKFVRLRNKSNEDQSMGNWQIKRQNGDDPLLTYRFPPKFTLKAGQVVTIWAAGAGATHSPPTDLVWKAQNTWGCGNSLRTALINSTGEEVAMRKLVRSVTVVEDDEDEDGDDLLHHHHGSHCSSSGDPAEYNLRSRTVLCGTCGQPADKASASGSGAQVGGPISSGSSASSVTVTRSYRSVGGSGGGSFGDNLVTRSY
UniProt P20700: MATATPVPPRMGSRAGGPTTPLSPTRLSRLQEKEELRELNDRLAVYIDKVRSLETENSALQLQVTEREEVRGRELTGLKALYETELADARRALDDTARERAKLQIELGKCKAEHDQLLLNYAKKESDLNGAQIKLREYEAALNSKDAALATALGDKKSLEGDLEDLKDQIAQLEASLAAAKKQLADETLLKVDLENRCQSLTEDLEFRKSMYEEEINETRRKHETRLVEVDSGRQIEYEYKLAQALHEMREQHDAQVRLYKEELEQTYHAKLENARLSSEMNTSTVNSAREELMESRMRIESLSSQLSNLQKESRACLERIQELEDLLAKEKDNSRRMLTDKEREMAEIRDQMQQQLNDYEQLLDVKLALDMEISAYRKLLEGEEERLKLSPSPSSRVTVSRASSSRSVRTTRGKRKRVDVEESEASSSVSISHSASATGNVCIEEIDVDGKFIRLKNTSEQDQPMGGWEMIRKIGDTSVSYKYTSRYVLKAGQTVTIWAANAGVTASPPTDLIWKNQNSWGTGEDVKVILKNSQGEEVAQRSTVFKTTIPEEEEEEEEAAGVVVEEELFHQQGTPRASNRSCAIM

Experiments:
[1] = target: nucleolin (human (endogenous in DLD-1)) (UniProt P19338); test: co-IP; whole-cell extracts of ~10^7 DLD-1 cells in co-IP lysis buffer (50 mM Tris pH 7.4, 150 mM NaCl, 0.5% NP-40, 1x PIC); 2 ug antinucleolin or antinucleophosmin antibody or normal rabbit IgG overnight at 4°C; protein A Dynabeads; 6 washes; immunoblot
[2] = target: nucleophosmin (human (endogenous in DLD-1)) (UniProt P06748); test: as above

binding [1]: no binding
Molecule: lamin A/C (from UniProt P02545 1-646)

binding [1]: no binding
Molecule: lamin B1 (from UniProt P20700 1-586)

binding [1]: binds
binding [2]: binds
B1: lamin B2 (protein, UniProt Q03252 1-620)
chain: MSPPSPGRRREQRRPRAAATMATPLPGRAGGPATPLSPTRLSRLQEKEELRELNDRLAHYIDRVRALELENDRLLLKISEKEEVTTREVSGIKALYESELADARRVLDETARERARLQIEIGKLRAELDEVNKSAKKREGELTVAQGRVKDLESLFHRSEVELAAALSDKRGLESDVAELRAQLAKAEDGHAVAKKQLEKETLMRVDLENRCQSLQEELDFRKSVFEEEVRETRRRHERRLVEVDSSRQQEYDFKMAQALEELRSQHDEQVRLYKLELEQTYQAKLDSAKLSSDQNDKAASAAREELKEARMRLESLSYQLSGLQKQASAAEDRIRELEEAMAGERDKFRKMLDAKEQEMTEMRDVMQQQLAEYQELLDVKLALDMEINAYRKLLEGEEERLKLSPSPSSRVTVSRATSSSSGSLSATGRLGRSKRKRLEVEEPLGSGPSVLGTGTGGSGGFHLAQQASASGSVSIEEIDLEGKFVQLKNNSDKDQSLGNWRIKRQVLEGEEIAYKFTPKYILRAGQMVTVWAAGAGVAHSPPSTLVWKGQSSWGTGESFRTVLVNADGEEVAMRTVKKSSVMRENENGEEEEEEAEFGEEDLFHQQGDPRTTSRGCYVM
